This is one part of the list. Most entries show no effect beyond the scatter of the controls.

Protein sequences, listed by entry. Tags and fused reporters are not part of them. Lines headed by an entry give the natural chain unless they say otherwise; changes in a name come on top.
UniProt P13693: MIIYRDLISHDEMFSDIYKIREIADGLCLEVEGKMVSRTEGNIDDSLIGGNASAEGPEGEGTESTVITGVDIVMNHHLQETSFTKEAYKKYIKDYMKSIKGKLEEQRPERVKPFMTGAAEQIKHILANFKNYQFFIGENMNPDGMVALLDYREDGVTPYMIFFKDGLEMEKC
UniProt P04075: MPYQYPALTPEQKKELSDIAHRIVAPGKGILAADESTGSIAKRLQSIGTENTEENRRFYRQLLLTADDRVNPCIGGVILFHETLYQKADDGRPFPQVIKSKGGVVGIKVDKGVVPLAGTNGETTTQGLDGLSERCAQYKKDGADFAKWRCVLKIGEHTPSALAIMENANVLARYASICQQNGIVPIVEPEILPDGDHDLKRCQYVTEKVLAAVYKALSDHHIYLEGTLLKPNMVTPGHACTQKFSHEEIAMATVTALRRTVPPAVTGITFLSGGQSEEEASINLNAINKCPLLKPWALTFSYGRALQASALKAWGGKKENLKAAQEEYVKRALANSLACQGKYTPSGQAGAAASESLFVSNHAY
UniProt P10768: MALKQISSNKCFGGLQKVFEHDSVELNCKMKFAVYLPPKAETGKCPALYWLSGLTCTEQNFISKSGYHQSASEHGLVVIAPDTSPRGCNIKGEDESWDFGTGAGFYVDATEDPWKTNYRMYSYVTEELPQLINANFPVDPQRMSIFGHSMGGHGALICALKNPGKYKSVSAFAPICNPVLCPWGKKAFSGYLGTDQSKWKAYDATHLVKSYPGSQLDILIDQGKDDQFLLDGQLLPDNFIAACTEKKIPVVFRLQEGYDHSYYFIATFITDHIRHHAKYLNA
UniProt P11717, whole entry: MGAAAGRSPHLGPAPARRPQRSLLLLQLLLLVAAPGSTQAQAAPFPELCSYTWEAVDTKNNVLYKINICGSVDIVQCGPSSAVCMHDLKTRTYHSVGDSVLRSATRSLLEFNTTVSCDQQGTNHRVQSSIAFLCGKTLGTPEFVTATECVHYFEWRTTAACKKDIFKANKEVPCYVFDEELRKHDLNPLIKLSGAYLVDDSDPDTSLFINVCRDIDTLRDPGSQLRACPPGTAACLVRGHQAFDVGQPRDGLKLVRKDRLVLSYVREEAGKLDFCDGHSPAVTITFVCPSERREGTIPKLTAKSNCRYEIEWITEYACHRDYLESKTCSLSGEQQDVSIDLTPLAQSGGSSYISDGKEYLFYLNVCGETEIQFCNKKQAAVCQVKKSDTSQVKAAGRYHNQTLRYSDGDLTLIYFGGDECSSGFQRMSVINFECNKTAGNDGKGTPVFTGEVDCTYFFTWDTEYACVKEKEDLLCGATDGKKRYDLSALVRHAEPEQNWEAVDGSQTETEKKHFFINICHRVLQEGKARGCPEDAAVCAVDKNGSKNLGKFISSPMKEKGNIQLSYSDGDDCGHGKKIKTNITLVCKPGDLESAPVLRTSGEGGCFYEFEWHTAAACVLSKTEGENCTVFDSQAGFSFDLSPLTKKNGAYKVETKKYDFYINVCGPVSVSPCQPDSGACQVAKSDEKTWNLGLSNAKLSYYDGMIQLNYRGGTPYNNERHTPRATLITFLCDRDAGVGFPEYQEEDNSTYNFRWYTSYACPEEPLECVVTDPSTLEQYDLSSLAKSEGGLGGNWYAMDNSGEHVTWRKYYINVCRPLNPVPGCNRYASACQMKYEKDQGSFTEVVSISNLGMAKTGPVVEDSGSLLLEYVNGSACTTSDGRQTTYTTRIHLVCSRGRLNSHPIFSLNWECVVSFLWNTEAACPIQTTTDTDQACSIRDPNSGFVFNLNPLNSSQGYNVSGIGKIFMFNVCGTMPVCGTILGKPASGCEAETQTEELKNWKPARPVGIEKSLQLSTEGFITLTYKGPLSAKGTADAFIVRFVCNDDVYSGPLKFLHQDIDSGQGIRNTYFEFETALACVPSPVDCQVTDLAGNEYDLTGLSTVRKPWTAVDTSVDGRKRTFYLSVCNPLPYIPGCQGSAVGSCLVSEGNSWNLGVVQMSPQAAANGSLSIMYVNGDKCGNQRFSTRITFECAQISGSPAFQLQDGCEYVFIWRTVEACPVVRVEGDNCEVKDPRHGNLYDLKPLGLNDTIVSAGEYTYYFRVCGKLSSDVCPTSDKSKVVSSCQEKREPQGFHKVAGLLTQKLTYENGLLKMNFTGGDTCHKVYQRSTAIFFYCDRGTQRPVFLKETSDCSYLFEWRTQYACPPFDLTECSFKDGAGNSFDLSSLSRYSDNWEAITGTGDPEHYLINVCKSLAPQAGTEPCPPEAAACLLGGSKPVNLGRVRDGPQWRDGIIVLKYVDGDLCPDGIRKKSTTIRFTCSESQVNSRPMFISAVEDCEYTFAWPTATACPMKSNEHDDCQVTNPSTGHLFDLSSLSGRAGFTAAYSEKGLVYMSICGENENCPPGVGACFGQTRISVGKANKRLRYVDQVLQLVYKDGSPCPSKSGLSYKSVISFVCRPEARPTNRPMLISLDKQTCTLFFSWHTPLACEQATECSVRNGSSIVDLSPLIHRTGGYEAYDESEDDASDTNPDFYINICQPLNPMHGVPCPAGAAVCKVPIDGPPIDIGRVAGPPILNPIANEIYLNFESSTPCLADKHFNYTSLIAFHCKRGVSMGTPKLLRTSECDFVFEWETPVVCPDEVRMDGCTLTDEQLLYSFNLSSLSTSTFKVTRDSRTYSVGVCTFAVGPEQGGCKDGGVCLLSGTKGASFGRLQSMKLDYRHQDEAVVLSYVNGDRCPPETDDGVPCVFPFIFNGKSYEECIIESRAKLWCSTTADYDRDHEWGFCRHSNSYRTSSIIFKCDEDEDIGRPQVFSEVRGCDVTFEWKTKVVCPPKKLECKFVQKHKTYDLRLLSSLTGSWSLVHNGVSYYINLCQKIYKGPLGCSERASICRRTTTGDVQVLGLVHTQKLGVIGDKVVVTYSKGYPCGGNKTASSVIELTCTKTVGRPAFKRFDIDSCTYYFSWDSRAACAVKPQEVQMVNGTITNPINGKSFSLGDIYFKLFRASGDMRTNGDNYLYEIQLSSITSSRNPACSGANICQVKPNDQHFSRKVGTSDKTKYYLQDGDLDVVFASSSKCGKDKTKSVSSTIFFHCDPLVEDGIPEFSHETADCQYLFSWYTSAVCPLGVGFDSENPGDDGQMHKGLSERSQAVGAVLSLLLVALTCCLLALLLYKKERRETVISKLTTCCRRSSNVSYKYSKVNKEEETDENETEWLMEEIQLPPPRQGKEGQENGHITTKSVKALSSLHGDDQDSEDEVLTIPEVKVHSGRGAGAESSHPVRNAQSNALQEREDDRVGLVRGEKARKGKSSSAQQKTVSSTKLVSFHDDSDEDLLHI
UniProt P08670, whole entry: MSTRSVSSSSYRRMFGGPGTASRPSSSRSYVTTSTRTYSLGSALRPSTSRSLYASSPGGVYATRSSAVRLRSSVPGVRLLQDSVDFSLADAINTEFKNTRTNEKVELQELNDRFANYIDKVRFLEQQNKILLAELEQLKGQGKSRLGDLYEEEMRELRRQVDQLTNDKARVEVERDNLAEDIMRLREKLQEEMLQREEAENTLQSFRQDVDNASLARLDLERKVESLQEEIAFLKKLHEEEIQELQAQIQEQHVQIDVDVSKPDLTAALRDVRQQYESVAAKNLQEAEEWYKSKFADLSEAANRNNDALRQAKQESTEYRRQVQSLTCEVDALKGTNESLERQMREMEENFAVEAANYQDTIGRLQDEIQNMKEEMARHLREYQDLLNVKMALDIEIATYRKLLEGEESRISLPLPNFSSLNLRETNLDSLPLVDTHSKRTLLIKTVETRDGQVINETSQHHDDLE
UniProt P13224: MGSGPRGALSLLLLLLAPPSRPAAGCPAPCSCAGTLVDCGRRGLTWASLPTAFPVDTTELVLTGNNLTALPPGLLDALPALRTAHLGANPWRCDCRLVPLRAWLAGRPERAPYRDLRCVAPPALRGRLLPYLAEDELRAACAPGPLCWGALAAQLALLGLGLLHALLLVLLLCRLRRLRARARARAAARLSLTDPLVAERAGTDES

Compound in the assay: Cc1nc(Nc2ncc(C(=O)Nc3c(C)cccc3Cl)s2)cc(N2CCN(CCO)CC2)n1 [dasatinib]
Kind of assay: log2 fold change of tryptic peptide abundance, ligand vs vehicle (limited proteolysis) (log2 ratio); higher = more trypsin-susceptible (destabilized). As to conditions: ligand concentration: 5 uM; sample: K562 cleared lysate.
With “TPT1 (peptide sequence: DLISHDEMFSDIYK, peptide start residue: 6) (UniProt P13693)”, the log2 fold change is 0.277.
As to “APOB (peptide sequence: LDNIYSSDKFYK, peptide start residue: 1770) (UniProt P04114)”, the log2 fold change is 0.0929.
In the case of “ALDOA (peptide sequence: AAQEEYVK, peptide start residue: 323) (UniProt P04075)” it was 0.0728.
Consider “ESD (peptide sequence: AFSGYLGTDQSK, peptide start residue: 187) (UniProt P10768)”, for which the log2 fold change was -0.245.
The value for “IGF2R (peptide sequence: LTYENGLLK, peptide start residue: 1302) (UniProt P11717)” was -0.222; that for “VIM (peptide sequence: MFGGPGTASRPSSSR, peptide start residue: 14) (UniProt P08670)” was 0.124.
The value for “GP1BB (peptide sequence: LSLTDPLVAER, peptide start residue: 190) (UniProt P13224)” was 0.0436.

Source of the values: the supplement of paper PMC12819154, “High-throughput peptide-centric local stability assay extends protein–ligand identification to membrane proteins, tissues and bacteria” (Nature Structural & Molecular Biology, 2025).
